Protein sequences, listed by entry. Tags and fused reporters are not part of them. Lines headed by an entry give the natural chain unless they say otherwise; changes in a name come on top.
UniProt Q9GYM9: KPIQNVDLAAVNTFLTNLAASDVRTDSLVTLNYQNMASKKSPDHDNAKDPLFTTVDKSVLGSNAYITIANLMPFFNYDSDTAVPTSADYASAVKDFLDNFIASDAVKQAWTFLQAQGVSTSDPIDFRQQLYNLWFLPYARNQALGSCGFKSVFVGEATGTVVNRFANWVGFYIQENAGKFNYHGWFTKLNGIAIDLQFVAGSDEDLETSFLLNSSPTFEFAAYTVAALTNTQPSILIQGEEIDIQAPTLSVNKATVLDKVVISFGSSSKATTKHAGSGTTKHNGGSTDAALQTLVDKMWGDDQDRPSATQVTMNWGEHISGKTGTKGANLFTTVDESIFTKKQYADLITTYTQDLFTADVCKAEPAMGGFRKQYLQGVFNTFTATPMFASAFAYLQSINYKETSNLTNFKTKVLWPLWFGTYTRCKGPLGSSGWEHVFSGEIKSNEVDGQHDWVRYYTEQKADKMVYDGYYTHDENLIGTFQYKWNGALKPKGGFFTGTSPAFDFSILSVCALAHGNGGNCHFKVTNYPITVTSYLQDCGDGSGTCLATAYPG
UniProt P54812: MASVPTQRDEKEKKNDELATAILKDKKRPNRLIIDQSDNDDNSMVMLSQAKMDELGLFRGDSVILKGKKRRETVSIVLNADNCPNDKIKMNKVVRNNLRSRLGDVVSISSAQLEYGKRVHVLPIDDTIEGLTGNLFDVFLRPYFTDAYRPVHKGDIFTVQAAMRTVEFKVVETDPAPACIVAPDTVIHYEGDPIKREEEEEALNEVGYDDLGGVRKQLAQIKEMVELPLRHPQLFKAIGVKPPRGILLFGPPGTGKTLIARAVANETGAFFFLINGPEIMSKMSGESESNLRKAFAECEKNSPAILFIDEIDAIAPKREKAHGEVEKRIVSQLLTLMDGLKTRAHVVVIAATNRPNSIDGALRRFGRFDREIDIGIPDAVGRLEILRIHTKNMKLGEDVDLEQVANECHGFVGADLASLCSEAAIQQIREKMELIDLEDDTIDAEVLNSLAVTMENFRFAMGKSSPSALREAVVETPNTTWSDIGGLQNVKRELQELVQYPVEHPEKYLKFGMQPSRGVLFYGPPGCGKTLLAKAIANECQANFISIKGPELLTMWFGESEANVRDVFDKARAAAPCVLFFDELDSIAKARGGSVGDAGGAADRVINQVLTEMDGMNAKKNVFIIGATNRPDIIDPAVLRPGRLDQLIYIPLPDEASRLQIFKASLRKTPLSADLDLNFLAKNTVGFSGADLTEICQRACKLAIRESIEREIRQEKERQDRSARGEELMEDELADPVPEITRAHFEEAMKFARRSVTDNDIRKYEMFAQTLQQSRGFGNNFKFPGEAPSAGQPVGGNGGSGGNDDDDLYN
UniProt P41877: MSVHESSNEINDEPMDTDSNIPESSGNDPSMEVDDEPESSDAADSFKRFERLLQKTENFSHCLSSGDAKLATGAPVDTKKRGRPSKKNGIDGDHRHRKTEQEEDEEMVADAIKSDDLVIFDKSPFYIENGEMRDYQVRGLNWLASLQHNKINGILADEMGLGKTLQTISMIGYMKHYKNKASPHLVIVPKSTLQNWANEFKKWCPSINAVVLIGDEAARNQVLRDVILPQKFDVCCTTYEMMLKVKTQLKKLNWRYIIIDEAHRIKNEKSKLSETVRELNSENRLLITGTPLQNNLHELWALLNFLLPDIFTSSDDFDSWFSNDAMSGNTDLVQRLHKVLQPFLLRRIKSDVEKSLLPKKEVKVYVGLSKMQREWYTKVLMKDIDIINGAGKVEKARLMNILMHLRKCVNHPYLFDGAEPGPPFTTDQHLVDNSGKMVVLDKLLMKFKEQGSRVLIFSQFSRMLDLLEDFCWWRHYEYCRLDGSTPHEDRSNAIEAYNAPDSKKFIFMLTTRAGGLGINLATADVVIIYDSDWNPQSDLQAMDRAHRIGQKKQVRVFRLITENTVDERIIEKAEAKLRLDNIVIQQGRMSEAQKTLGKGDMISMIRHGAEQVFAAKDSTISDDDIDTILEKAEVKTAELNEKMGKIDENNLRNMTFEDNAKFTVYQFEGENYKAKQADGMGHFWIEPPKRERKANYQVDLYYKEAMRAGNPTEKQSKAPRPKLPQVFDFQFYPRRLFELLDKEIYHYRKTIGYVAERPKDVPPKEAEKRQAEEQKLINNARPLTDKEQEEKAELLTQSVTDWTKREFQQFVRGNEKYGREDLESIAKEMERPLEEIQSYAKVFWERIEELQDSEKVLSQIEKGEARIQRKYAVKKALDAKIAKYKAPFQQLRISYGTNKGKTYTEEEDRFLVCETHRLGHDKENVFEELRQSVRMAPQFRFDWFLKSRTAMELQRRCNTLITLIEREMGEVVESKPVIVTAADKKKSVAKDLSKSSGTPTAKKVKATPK
UniProt Q10578: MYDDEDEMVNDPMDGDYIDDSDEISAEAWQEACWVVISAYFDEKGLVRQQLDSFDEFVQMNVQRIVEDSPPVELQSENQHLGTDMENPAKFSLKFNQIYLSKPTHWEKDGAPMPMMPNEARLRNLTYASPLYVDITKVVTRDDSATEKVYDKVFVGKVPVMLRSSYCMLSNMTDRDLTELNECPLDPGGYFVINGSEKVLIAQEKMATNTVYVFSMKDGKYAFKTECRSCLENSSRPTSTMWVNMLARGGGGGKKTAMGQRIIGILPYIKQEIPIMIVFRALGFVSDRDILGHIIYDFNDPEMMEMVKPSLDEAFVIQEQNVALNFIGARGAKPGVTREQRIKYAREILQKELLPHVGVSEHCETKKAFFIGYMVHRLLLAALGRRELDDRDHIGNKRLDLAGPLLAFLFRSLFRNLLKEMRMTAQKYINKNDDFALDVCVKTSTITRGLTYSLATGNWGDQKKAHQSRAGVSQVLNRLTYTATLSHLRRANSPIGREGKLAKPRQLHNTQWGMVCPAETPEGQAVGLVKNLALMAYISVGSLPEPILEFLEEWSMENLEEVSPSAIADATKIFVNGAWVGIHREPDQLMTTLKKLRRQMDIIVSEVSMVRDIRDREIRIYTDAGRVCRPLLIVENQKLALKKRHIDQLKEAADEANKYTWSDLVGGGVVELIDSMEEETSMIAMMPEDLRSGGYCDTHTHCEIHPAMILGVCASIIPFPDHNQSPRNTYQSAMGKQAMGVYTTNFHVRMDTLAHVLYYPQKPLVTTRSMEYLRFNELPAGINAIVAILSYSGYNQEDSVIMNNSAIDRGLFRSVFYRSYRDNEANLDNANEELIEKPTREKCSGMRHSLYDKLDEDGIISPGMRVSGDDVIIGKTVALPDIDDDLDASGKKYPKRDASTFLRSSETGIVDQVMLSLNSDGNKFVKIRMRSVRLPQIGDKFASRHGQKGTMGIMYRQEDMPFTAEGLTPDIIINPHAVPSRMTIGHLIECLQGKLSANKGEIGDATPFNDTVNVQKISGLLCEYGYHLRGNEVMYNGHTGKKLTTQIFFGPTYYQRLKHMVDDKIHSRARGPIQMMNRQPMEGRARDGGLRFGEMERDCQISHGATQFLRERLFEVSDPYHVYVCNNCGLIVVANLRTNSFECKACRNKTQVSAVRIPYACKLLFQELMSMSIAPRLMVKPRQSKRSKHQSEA
UniProt Q9N5K2: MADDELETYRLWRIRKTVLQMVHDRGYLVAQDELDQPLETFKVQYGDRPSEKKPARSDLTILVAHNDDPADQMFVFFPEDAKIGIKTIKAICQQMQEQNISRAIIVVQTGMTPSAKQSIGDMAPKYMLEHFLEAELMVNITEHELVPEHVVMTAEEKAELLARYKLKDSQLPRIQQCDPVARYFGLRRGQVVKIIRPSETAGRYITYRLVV
UniProt Q9N3C9: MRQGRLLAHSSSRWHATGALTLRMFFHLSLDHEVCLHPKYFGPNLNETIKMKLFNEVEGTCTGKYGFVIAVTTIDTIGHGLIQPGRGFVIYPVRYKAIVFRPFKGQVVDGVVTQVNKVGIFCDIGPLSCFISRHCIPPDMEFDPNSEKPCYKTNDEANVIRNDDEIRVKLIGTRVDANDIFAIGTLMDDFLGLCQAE
UniProt G5EF87: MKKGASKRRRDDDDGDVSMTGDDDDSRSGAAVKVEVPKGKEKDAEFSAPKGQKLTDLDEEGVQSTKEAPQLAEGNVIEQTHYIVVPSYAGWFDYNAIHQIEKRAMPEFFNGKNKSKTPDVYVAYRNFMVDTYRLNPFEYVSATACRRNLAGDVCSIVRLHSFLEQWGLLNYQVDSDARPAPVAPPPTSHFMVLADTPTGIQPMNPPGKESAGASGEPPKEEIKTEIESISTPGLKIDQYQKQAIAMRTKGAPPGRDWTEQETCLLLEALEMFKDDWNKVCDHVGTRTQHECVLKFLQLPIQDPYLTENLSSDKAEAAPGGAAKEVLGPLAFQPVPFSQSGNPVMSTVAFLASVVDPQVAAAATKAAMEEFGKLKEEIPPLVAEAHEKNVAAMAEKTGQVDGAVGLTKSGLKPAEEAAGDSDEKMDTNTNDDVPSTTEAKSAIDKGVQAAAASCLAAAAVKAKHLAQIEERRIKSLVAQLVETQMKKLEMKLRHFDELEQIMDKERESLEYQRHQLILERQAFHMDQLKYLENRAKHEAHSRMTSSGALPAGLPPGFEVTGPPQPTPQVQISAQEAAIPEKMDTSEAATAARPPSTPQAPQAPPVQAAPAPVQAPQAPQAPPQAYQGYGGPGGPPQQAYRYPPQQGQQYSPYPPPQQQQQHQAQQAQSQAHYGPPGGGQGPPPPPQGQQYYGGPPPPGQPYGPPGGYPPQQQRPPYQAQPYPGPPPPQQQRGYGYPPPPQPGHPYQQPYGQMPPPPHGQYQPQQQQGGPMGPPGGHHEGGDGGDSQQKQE
UniProt G5EF53: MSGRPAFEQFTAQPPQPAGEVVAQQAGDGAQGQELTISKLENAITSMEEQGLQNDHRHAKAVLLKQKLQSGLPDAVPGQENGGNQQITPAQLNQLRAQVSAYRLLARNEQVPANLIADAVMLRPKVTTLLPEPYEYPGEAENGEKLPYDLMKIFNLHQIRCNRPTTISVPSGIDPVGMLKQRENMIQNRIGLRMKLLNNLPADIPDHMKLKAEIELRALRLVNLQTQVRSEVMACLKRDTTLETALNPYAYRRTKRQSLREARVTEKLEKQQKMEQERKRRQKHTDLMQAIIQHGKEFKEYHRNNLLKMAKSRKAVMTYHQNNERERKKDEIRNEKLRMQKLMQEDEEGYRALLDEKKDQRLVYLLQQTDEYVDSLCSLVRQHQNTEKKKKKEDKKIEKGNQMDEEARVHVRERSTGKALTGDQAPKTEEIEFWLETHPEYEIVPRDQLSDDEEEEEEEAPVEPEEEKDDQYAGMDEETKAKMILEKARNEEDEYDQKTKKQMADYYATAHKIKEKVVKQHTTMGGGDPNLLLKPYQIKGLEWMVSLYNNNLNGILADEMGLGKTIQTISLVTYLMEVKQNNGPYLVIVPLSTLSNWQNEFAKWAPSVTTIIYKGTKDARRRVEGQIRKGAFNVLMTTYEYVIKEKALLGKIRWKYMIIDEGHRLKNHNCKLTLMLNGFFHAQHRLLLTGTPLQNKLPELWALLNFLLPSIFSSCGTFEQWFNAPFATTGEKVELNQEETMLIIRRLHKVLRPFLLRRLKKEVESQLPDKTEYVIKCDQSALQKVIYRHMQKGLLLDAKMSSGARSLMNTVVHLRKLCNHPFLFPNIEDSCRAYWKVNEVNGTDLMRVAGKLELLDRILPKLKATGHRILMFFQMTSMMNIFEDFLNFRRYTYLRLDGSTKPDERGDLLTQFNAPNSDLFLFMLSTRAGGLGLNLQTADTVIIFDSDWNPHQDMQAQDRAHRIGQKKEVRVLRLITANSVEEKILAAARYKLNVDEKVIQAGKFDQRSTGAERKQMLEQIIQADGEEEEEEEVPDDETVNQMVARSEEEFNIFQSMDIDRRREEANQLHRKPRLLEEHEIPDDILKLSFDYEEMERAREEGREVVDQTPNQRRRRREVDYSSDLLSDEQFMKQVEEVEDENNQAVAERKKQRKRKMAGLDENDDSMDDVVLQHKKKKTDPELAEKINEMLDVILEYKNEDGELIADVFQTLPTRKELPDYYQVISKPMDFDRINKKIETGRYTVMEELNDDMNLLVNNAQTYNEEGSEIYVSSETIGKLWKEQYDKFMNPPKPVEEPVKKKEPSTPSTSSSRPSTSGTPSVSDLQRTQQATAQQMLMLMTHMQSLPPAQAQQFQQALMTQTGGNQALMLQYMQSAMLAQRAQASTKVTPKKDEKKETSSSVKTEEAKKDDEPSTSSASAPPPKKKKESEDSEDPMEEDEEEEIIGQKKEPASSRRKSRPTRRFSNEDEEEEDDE

In paper PMC10345090:

B1: ENPL-1 (Ce. HSP90B1) (protein, UniProt Q22235 24-760)
chain: EDEIEDAPKETKEETREEDSIKLDGLSVSQIKELRSKAEKHEFQAEVNRMMKLIINSLYRNKEIFLRELISNASDALDKIRLLSLTDPEQLRETEEMSVKIKADRENRLLHITDTGVGMTRQDLINNLGTIARSGTSEFLSKLMDTATSSDQQQDLIGQFGVGFYAAFLVADRVVVTTKNNDDDQYIWESDSASFTISKDPRGNTLKRGTQITLYLKEEAADFLEPDTLKNLVHKYSQFINFDIFLWQSKTEMVEEAVEEEPATTEDGAVEEEKEEKKTKKVEKTTWDWEKVNNVKPIWMRKPNQVEEDEYKQFYKSITKDSEEPLSHVHFSAEGEVSFRSILYVPKKSPNDMFQNYGKVIENIKLYVRRVFITDDFADMLPKYLSFIRGIVDSDDLPLNVSRENLQQHKLLKVIKKKLVRKVLDMLKKLDGAQFDDFWSEFSTNIKLGVMEDPSNRMRLAKLLRFQSSNDADKTTTLAAYVERMKEKQDAIYYMAGTSRKEVETSPFVERLIAKGYEVLFLTEAVDEYCIQAMPEYESKKFQNVAKEGVTIDDGEKAKEAHKGLEEEFKPLTDWLKETALKDLIEKAVVSQRLVKSPSALVASSYGWSGNMERIMKSQAYAKAKDPTQDFYATQKKTFEINPRHPVIKELLKRVTASEEDTTAASTAKLLFETATLRSGFSLQDQVGFADRIEAVLRQSLDVSQDAQVETEQHIEEAEPEPEAAEETTIEEEHSEL

The molecules below were run against ENDU-2::EGFP (C. elegans) (UniProt Q9GYM9) (assay: affinity purification with mass spectrometry; ENDU-2::EGFP immunoprecipitated from EGFP knock-in day 1 adult worms after 1 h HS at 35 °C and about 2 h recovery; co-precipitated proteins by label-free quantitative MS (log2LFQ intensity >1)).

binding, binds:
B1

Target: ENDU-2::EGFP (C. elegans) (UniProt Q9GYM9)
Assay: as above
Remark: another data set of the same source

binding, binds:
CDC-48.2 (Ce. P97) (from UniProt P54812 1-810)
ISW-1 (from UniProt P41877 1-1009)
RPB-2 (Pol II subunit B) (from UniProt Q10578 1-1193)
RPB-5 (from UniProt Q9N5K2 1-211)
RPB-7 (from UniProt Q9N3C9)
SWSN-1 (from UniProt G5EF87 1-789)
SWSN-4 (from UniProt G5EF53 1-1474)

No constants are given. Whether binding was seen depends on the method and setting. In cells and extracts the contact can be indirect. Here binding means that the protein was enriched with, or labelled near, the bait; the list need not be complete.
